The text below walks through data of publication PMC6446049 (Alzheimer's & Dementia : Translational Research & Clinical …, 2019).

This data set in a line: Plasma pharmacokinetics. To be noted: noncompartmental analysis; donepezil 2.5 or 5 mg.

In the case of `COc1cc2c(cc1OC)C(=O)C(CC1CCN(Cc3ccccc3)CC1)C2` (stereo not shown) [DPZ, donepezil, reference compound], the “donepezil pharmacokinetic parameters with or without EVP-6124” value is “similar”.
